Experimental data: patent publication US20180015176A1
These are yes or no findings as the source states them, for the method shown. Some entries that bind do so weakly or less than the wild type.

Molecular target: TPP-599 (HUMAN-TNFRSF12Aaa28-80-hIgG1-Fc) (human)
Test: ELISA, soluble Fab on 2.5 nM biotinylated TWEAKR-Fc, anti-c-myc detection

| binding | Binder |
| --- | --- |
| binds | TPP-883 single-substitution variant S36G of CDR-L1 (soluble Fab) (Fab, V domains shown) VH: EVQLLESGGGLVQPGGSLRLSCAASGFTFSPYPMMWVRQAPGKGLEWVSYISPSGGKTHYADSVKGRFTISRDNSKNTLYLQMNSLRAEDTAVYYCARGGDGYFDYFDYWGQGTLVTVSS VL: DIQMTQSPATLSASVGDRVTITCRASQSISGYLNWYQQKPGKAPKLLIYAASSLQSGVPSRFSGSGSGTDFTLTISSLQPEDFATYYCQQSYSSPGITFGPGTKVEIK |
| binds | TPP-883 single-substitution variant S94T of CDR-L3 (soluble Fab) (Fab, V domains shown) VH: EVQLLESGGGLVQPGGSLRLSCAASGFTFSPYPMMWVRQAPGKGLEWVSYISPSGGKTHYADSVKGRFTISRDNSKNTLYLQMNSLRAEDTAVYYCARGGDGYFDYFDYWGQGTLVTVSS VL: DIQMTQSPATLSASVGDRVTITCRASQSISSYLNWYQQKPGKAPKLLIYAASSLQSGVPSRFSGSGSGTDFTLTISSLQPEDFATYYCQQSYTSPGITFGPGTKVEIK |
| binds | TPP-883 single-substitution variant S57K of CDR-L2 (soluble Fab) (Fab, V domains shown) VH: EVQLLESGGGLVQPGGSLRLSCAASGFTFSPYPMMWVRQAPGKGLEWVSYISPSGGKTHYADSVKGRFTISRDNSKNTLYLQMNSLRAEDTAVYYCARGGDGYFDYFDYWGQGTLVTVSS VL: DIQMTQSPATLSASVGDRVTITCRASQSISSYLNWYQQKPGKAPKLLIYAASSLQKGVPSRFSGSGSGTDFTLTISSLQPEDFATYYCQQSYSSPGITFGPGTKVEIK |
